Test results reported in PubChem BioAssay AID2685 (National Center for Advancing Translational Sciences (NCATS), 2010).
Hit rate of the full screen: of about 320,000 compounds, about 2,100 (0.66%) were called active. The inconclusive results got no clear call from the source; some entries with a clear call stand among them for comparison. The call rests on the fitted dose curve; in most records, active means well fitted inhibition curve with a large enough effect in the signal ratio, with a control signal flat (not every such curve was filed as active); inconclusive means small, poorly fitted or top-dose-only effect, or effect the other way, or a change in a side signal; inactive means flat fitted curve, though single readings scatter; the % refers to the signal ratio. Where the call is inconclusive, the potency comes from a doubtful curve fit.

Assay: qHTS Assay for Lipid Storage Modulators in Drosophila S3 Cells
Conditions: BODIPY lipid droplet fluorescence, 18-24 h, cells fed with added oleic acid; lipid storage change, negative = inhibition: at 46.1 µM (top of the series) unless noted
Outline: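 Drosophila S3 cells loaded with oleic acid (400 uM, as added) and compounds at several concentrations; lipid droplets imaged by 488-nm laser-scanning cytometry, 500–530 nm intensity and object ratio to cell channel. Percent activity normalized to 20 uM Triacsin C.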
On the % scale 0 is the no-effect control and ±100 the full control effect; potency means the concentration at half of the fitted maximal effect.

Row | SMILES | lipid storage change, negative = inhibition | Potency
1 | O=C(N/N=C/c1cn(-c2ccccc2)nc1-c1cccs1)c1ccc(Cl)cc1 | inconclusive: 28.8% | 
2 | Cc1nc(NC(=O)CSc2nc3cccnc3n2C2CCCCC2)sc1C | inconclusive: 27.8% | 
3 | CC(C)Oc1ccccc1C1(c2ccccc2)NC(=O)NC1=O (stereo not given) | inconclusive: -26.6% | 
4 | COc1cc([C@@H]2CC=C(C(=O)O)CN2S(=O)(=O)c2ccc(C)cc2)cc(OC)c1OC |  | inconclusive: 0.411 µM [activator, single point]
5 | COC(=O)CC1COc2ccccc2N1C(=O)c1cccc(Cl)c1 (stereo not given) | inconclusive: -22.5% | 
6 | O=C(c1ccc(Br)o1)N1CCc2ccccc21 | inconclusive: 18.4% | 
7 | C/C(=C1\SC(N2CCOCC2)=NC1=O)c1ccccc1 | inconclusive: 13.9% | 
8 | O=C(c1ccco1)N1CCN(Cc2cc(=O)c(OCc3ccc(F)cc3)co2)CC1 | inconclusive | 
9 | Cc1ccc(CN2CCC(n3nccc3NC(=O)c3ccccc3C)CC2)o1 |  | inconclusive: 4.61 µM [falling, single point]
10 | Cc1nnc(SCc2nc3sc4c(c3c(=O)[nH]2)CCCC4)n(N)c1=O |  | inconclusive: 29.1 µM [cytotoxic, single point]
11 | O=C(Oc1cccc(C(=S)N2CCCCC2)c1)c1ccccc1 | inconclusive: -21.4% | 
12 | COc1ccc(Cl)cc1NC(=O)CCN1C(=O)C2C3C=CC(C4CC34)C2C1=O (stereo not given) |  | inconclusive: 23.1 µM [activator, single point]
13 | COc1ccc(N(C(=O)CNC(=O)c2ccco2)C(C(=O)NC2CCCCC2)c2ccco2)cc1 (stereo not given) |  | inconclusive: 4.11 µM [activator, single point]
14 | Cc1ccc2c(c1)N(CC(=O)NCC1CCCO1)C(=O)C(C(C)C)O2 (stereo not given) | inconclusive: 60.2% | 
15 | CC(C)CCNC(=O)C1c2ccccc2Oc2ccccc21 | inconclusive: 41.9% | 
16 | NS(=O)(=O)c1ccc(N2N=C(c3ccccc3)CC2c2ccc(F)cc2)cc1 (stereo not given) |  | inconclusive: 20.6 µM [activator, single point]
17 | Cc1cc(NC(=O)CSCCc2ccncc2)no1 | inconclusive: 13.2% | 
18 | Cc1c(C(=O)NCCCN2CCCC2=O)oc2c(Cl)cccc12 | inconclusive | 
19 | Cc1ccc(OCC(=O)NN=C2c3ccccc3-c3ccccc32)cc1 | inconclusive: 15.5% | 
20 | Cc1cccc(C)c1NC(=O)COC(=O)CCc1c[nH]c2ccccc12 |  | inconclusive: 7.31 µM [activator, partial curve, poor fit]
21 | COC(=O)C1=C(C)N(Cc2ccccc2)C(=NCCCCO)N[C@H]1c1ccccc1 | inconclusive: 16.6% | 
22 | CCOc1ccc(Cl)cc1S(=O)(=O)n1cnc2ccccc21 |  | inconclusive: 29.1 µM [activator, single point]
23 | COc1ccc(NC(=O)C2CCN(c3ncnc4c3nc3n4CCCCC3)CC2)cc1Cl | inconclusive: 119% | 
24 | CCC(=O)Nc1ccc(Cl)c(NC(=O)c2ccc([N+](=O)[O-])cc2)c1 |  | inconclusive: 0.259 µM [falling, full curve, poor fit]
25 | CCCNC(=O)CSc1nc(COc2ccccc2)nc2ccccc12 | inconclusive: 21.2% | 

An excerpt from above in order of molecular weight, largest number first:
Row | SMILES | lipid storage change, negative = inhibition | Potency
8 | O=C(c1ccco1)N1CCN(Cc2cc(=O)c(OCc3ccc(F)cc3)co2)CC1 | inconclusive | 
12 | COc1ccc(Cl)cc1NC(=O)CCN1C(=O)C2C3C=CC(C4CC34)C2C1=O (stereo not given) |  | inconclusive: 23.1 µM [activator, single point]
3 | CC(C)Oc1ccccc1C1(c2ccccc2)NC(=O)NC1=O (stereo not given) | inconclusive: -26.6% | 
15 | CC(C)CCNC(=O)C1c2ccccc2Oc2ccccc21 | inconclusive: 41.9% | 

Going on with the list:

Row | SMILES | lipid storage change, negative = inhibition | Potency
26 | O=C(Nc1ccncc1)c1cccc(S(=O)(=O)N2CCN(c3ccc(F)cc3)CC2)c1 | inconclusive: -79.1% | 
27 | Cc1ccc(S(=O)(=O)N(C)C)cc1NC(=S)NNC(=O)C(N)=O | inconclusive: 7.74% | 
28 | CCCCC(=O)NC(NC(=O)CCCC)c1ccc(OCC(C)C)c(OC)c1 | inconclusive: -0.207% | 
29 | COC(=O)c1ccc(N2C(=O)c3cc(N4CCOCC4)c([N+](=O)[O-])cc3C2=O)cc1 | inactive: 1.86% | 
30 | O=C1NC(c2ccc(Br)cc2)Nc2ccccc21 (stereo not given) | inconclusive: -61.6% | 
31 | CCOc1ccc(N(CC(=O)Nc2ccc(C)c(C)c2)S(=O)(=O)c2c(C)noc2C)cc1 | inconclusive: -22% | 
32 | CSc1ccc(NC(=O)Nc2ccc(C(=O)NCC(=O)O)cc2)cc1 | inconclusive: 11.9% | 
33 | CCN(CC)C(=O)COc1ccc2oc(C)c(C(=O)OC)c2c1 |  | inconclusive: 1.3 µM [activator, full curve]
34 | CCOC(=O)C1CCN(S(=O)(=O)c2cc3c(cc2C)NC(=O)CO3)CC1 |  | inconclusive: 5.17 µM [falling, single point]
35 | CCCCN1C(=O)c2ccccc2C1C(=O)NC1CCCC1 (stereo not given) | inconclusive: -8.58% | 
36 | Cc1ccc(Nc2nc(-c3ccncc3)nc3ccccc23)cc1 | inactive: 6.48% | 
37 | CCNC(=O)/C(=C/c1cccc([N+](=O)[O-])c1)NC(=O)c1ccc(C)cc1 | inconclusive: 0.323% [at 9.22 µM] | 
38 | CC(C)CNC(=O)C1CCN(c2ccc(S(=O)(=O)N3CCOCC3)cc2)CC1 |  | inconclusive: 0.13 µM [falling, full curve, poor fit]
39 | O=C(Nc1ccc(S(=O)(=O)N2CCCCC2)cc1)c1cccnc1Cl | inconclusive | 
40 | O=C(O)c1ccccc1S(=O)(=O)NCC(O)COC1CCCCC1 (stereo not given) |  | inconclusive: 29.1 µM [falling, single point]
41 | COc1ccc(OCC(Cn2cnc3ccccc32)OC(C)=O)cc1 (stereo not given) | inconclusive: 42.7% | 
42 | CC(CC(=O)N1CCN(c2ccccc2)CC1)c1ccccc1 (stereo not given) | inconclusive: -4.08% | 
43 | O=S(=O)(NCC(c1ccco1)N1CCc2ccccc21)c1ccccc1 (stereo not given) | inconclusive: 17.9% | 
44 | COc1ccc(Cl)cc1N(CC(=O)N1CCCC1)S(=O)(=O)c1ccc(C)cc1 | inconclusive: 34% | 
45 | CCC(O)C1CCN(C(=O)c2cc(COc3ccc4ncccc4c3)on2)CC1 (stereo not given) | inactive: 8.73% | 
46 | CC/C(=N\NS(C)(=O)=O)c1ccccc1 | inconclusive: -6.72% | 
47 | Cc1ccc2nc(NCCCO)nc(-c3ccccc3)c2c1 |  | inconclusive: 0.517 µM [activator, single point]
48 | O=C1C2C3C=CC(CC3)C2C(=O)N1c1cccc(Br)c1 (stereo not given) | inconclusive: -23.1% | 
49 | CC[n+]1c(/C=C(\C)Nc2ccccc2)sc2ccccc21 |  | inconclusive: 9.2 µM [rising, partial curve]
50 | CCCn1c(=O)c(C(=O)Nc2cccc(C)n2)c(O)c2ccccc21 | inconclusive: 38% | 

Row | SMILES | lipid storage change, negative = inhibition | Potency
51 | CCN1CCN(Cc2ccc(NC(=O)c3cc(NC(=O)C(=O)c4c[nH]c5ccccc45)cc(OC)c3)cc2C(F)(F)F)CC1 |  | inconclusive: 29.1 µM [cytotoxic, single point]
52 | CCN(CC)c1ccc(NC(=O)c2ccc3c(c2)c(C)c(C)n3C)cc1 | inconclusive: -27.8% | 
53 | Cc1nn(CCc2n[nH]c(=S)n2-c2ccc(F)c(Cl)c2)c(C)c1[N+](=O)[O-] | inconclusive: 36.7% | 
54 | O=C(NCC(c1ccco1)N1CCN(c2ccc(F)cc2)CC1)c1ccc2c(c1)OCO2 (stereo not given) |  | inconclusive: 0.259 µM [rising, full curve, poor fit]
55 | NC(=O)c1ccccc1OCC(=O)N1CCCC1c1ccc2c(c1)OCCCO2 (stereo not given) | inconclusive: -2.15% | 
56 | CC(Sc1nc2ncc(Cl)cc2[nH]1)C(=O)NC1(C#N)CCCCC1 (stereo not given) | inconclusive: 40.1% | 
57 | Cc1cccc(NC(=O)CSc2nnc(-c3ccc(S(=O)(=O)N4CCOCC4)cc3)n2C)c1 | inconclusive: -38.3% | 
58 | CC(C(=O)N1CCc2ccccc21)N1CCN(S(=O)(=O)c2cccc(C(F)(F)F)c2)CC1 (stereo not given) |  | inconclusive: 29.1 µM [falling, single point]
59 | Cc1c(Cl)cccc1Nc1nc(N)nc(CSc2ncccn2)n1 |  | inconclusive: 29.1 µM [rising, single point]
60 | CCOC(=O)Cc1csc(NC(=O)Cc2cccs2)n1 |  | inconclusive: 0.92 µM [falling, full curve, poor fit]
61 | O=C(NCC1CCCO1)/C(=C\c1ccco1)NC(=O)c1ccc(Cl)cc1 (stereo not given) |  | inconclusive: 0.731 µM [falling, single point]
62 | Cc1nc2ccccc2nc(C)c1=NOCc1ccc(C#N)cc1 |  | inconclusive: 4.11 µM [activator, partial curve]
63 | Cc1cc(/C=C2/SC(=O)N(CC(=O)N3CCCC3)C2=O)c(C)n1C | inconclusive: -69.4% | 
64 | COCCCN1C(=O)C(O)=C(C(C)=O)C1c1cccc(F)c1 (stereo not given) | inconclusive: -16.2% | 
65 | COc1cc(/C=N/NC(=O)c2ccccn2)ccc1OC(=O)c1cccs1 |  | inconclusive: 23.1 µM [falling, single point]
66 | CS(=O)(=O)N1CCN(C(=O)c2c(F)cccc2F)CC1 | inconclusive: -41.7% | 
67 | O=C(CCC(=O)Nc1ccccc1Cl)N/N=C/c1c[nH]c2ccccc12 | inconclusive: 65.3% | 
68 | COC(=O)[C@@]12CCCCN1[C@H](c1ccc(-c3cccc(Cl)c3)c(OC)c1)[C@H]1C(=O)N(C)C(=O)[C@H]12 |  | inconclusive: 0.731 µM [activator, full curve, poor fit]
69 | COc1cccc(N2CCN(CC(=O)Nc3ccnn3C3CCCC3)CC2)c1 |  | active: 10.3 µM
70 | O=C(OCC(=O)N1CCCCCC1)c1ccc(S(=O)(=O)N2CCOCC2)cc1 | inconclusive: 3.06% | 
71 | Cc1ccc(C)c(S(=O)(=O)N2CCN(C(=O)C3CC3C)CC2)c1 (stereo not given) | inconclusive | 
72 | c1ccc(C2Nc3cccc4cccc(c34)N2)cc1 |  | inconclusive: 20.6 µM [falling, single point]
73 | COc1ccc(CCNC(=O)Cn2cc(C(F)(F)F)cc(Cl)c2=O)cc1OC |  | inconclusive: 4.61 µM [falling, full curve]
74 | Cc1ccc(CNC(=O)C(Cc2ccccc2)n2cccc2)cc1 (stereo not given) | inconclusive: 1.77% | 
75 | COc1ccc(NC2=C(c3ccc(OC)cc3)C(=O)c3ccccc32)cc1 | inconclusive: 10.6% | 
